Measurements from patent US20240336629A1, “Tricyclic Derivatives Useful As PARP7 Inhibitors” (JACOBIO PHARMACEUTICALS CO., LTD., priority 2021, published 2024).
A number of entries come with more than one value. Only these are listed. An entry can have further records. Values given together read as repeated measurements on other runs, samples or individuals.

Sequences of proteins named here, by UniProt entry; tags and fusion partners are left off. Residues count along the entry.
UniProt Q7Z3E1, 456-657 limits assumed: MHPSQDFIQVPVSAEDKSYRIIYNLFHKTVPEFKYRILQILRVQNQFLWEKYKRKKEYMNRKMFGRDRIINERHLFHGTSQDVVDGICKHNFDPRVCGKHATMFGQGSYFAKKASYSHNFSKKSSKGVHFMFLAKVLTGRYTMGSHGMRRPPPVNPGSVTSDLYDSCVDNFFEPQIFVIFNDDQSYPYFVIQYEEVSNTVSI

Target: PARP7 enzyme (Homo sapiens (Human), UniProt Q7Z3E1)
Experiment: PARP7 enzymatic experiment (HTRF assay)
Format: biochemical
Settings: read-out: PARP7 Enzyme (IC50 μM), 4PL fit

CC1CC2CN(C(=O)CCOC[C@H](C)Nc3cn[nH]c(=O)c3C(F)(F)F)CCN2c2ncc(C(F)(F)F)cc2O1 (single isomer, unassigned) [Compound 62B]
IC50: 8.19 nM and 41.5 nM
